# Measured values reported in publication PMC12040169 (PLOS Biology, 2025).
# The other results are listed elsewhere or left out.
# System: T1, CTL2-GFP (C. trachomatis L2/434/Bu, GFP-expressing)
# T1 construct: L2/434/Bu, GFP-expressing
# Design: species or system HeLa; Intracellular C. trachomatis growth in HeLa cells, bulk GFP fluorescence relative to DMSO
# Settings: bulk GFP, single well; 28.5 h, 10 µM; inhibitor
row,SMILES,% of control remaining
1,Cc1cc(C(=O)NCCO)ccc1Br [CBK175092],146.128%
2,Cc1ccc(CSCCNS(=O)(=O)c2ccsc2C(=O)O)cc1 [CBK296727],136.814%
3,COc1cccc(C(=O)NC(c2ccc([N+](=O)[O-])cc2)c2c(O)ccc3ccccc23)c1 (stereo not shown) [CBK263971],134.379%
4,COc1ccc(-c2ccc(OC)cc2C(=O)Nc2ccc3c(c2)OCC(=O)N3)cc1 [CBK285821],123.114%
5,Cn1c(=O)c2c(nc(NCCCO)n2C/C=C/c2ccccc2)n(C)c1=O [CBK268940],123.861%
6,O=C(O)C1CCCCC1C(=O)NCc1cccnc1 (stereo not shown) [CBK261695],99.5066%
7,COc1cc2c(cc1CNC(=O)c1cn(CCN)nn1)CCC2 [CBK306886],19.7773%
8,CC(Cn1cccn1)NCC(=O)NC1(C#N)CCCCC1 (stereo not shown) [CBK304845],128.44%
9,COC(=O)[C@@H]1CN(C(=O)C2CCCC2)CCN1C(=O)c1cccs1 [CBK289609],123.949%
10,O=C(CSc1ccc2nnc(-c3ccccn3)n2n1)N1CCCCC1 [CBK287621],128.187%
11,CN(CC1(C)COC1)C(=O)c1cn2cc(Cl)ccc2n1 [CBK281721],90.6322%
12,CC(Nc1ccc2[nH]c(=O)[nH]c2c1)C(=O)N1CCN(c2ccccc2)CC1 (stereo not shown) [CBK296748],132.702%
13,O=C(c1ccc(O)cc1)c1ccc(C(=O)O)c(C(=O)O)c1 [CBK261075],100%
14,CCc1nn(C)cc1CN1CCOC(c2nc(C(C)(C)C)cs2)C1 (stereo not shown) [CBK304513],128.001%
15,O=C(Nc1ccc([N+](=O)[O-])cc1)Nc1ccc(N2CCOCC2)c2nonc12 [CBK266885],125.534%
16,CC(C)NC(=O)Nc1ccc(C(=O)N(CC#N)C2CC2)cc1 [CBK306120],133.529%
17,CN(C)c1ccc2cccc(O)c2n1 [CBK149729],86.1676%
18,CC1CCCCN1CCNC(=O)c1ccc(Cn2c(=S)[nH]c3ccccc3c2=O)cc1 (stereo not shown) [CBK265674],80.4088%
19,O=C(NC1CCc2ccccc21)c1cnc(-c2ccc(Cl)cc2)c(-c2ccc(O)cc2)c1 (stereo not shown) [CBK036629],91.9762%
20,O=C(O)CSc1nnc2n(-c3ccccc3)c3ccccc3n12 [CBK268557],121.2%

row,SMILES,% of control remaining
1,CCOC(=O)C1=C(C)NC(=O)NC1c1ccc(-c2cccc([N+](=O)[O-])c2)o1 (stereo not shown) [CBK072102],100%
2,COc1ccccc1-c1nccnc1OCc1cccc(OC)c1OC [CBK106825],98.3812%
3,CCC(CO)Nc1cncc(-c2cccc(O)c2)n1 (stereo not shown) [CBK037777],109.257%
4,O=C(O)CNS(=O)(=O)c1cc(Cl)sc1Cl [CBK034452],137.113%
5,Cc1cc(C(=O)Nc2ccc(S(=O)(=O)Nc3onc(C)c3C)cc2)no1 [CBK268166],34.8194%
6,Cc1c(C(C)NC(=O)Nc2ccc(F)cc2F)cnn1C (stereo not shown) [CBK266986],85.0986%
7,C=Cn1ncc(CN2CCc3[nH]c4ccc(OCC)cc4c3C2)c1C [CBK282574],116.772%
8,CC(O)c1cccc(NC(=O)CCC(=O)O)c1 (stereo not shown) [CBK264691],111.611%
9,CCNC(=O)C1=C(C(=O)NCC)N2C(=NC(C)(C)c3ccccc32)S1 [CBK010172],138.276%
10,C[C@H](c1ccccc1)N1C(=O)[C@@H]2CN(C(=O)CC(C)(C)CC(=O)O)CCN2C1=O [CBK289639],82.7321%
11,Cn1ccc(C2CCCCCN2C(=O)Cc2cccs2)n1 (stereo not shown) [CBK283047],105.954%
12,Cc1cc(OCCC#N)cc(C)c1Cl [CBK015872],125.392%
13,Cc1nn(C)c(N2CCNCC2)c1NC(=O)c1ccccc1 [CBK050257T],121.265%
14,CC(C)C[C@@H]1N[C@H](C(=O)NC2CC2)Cc2cn(Cc3nccn3C)c3cccc1c23 [CBK289423],114.931%
15,CC(=O)N(C)c1ccc(NC(=O)/C=C/C(=O)O)cc1 [CBK287162],116.047%
16,COC(=O)Cn1c(-c2ccc(OC)cc2)cc2cccnc21 [CBK282268],120.084%
17,O=C(Cc1nnc(-c2ccncc2)o1)NCCC1=CCCCC1 [CBK288605],93.2599%
18,O=[N+]([O-])c1ccn(C2CC(O)C(CO)O2)c1 (stereo not shown) [CBK201229],101.312%
19,Nc1ncc(-c2cccc(F)c2)nc1NCC1CCOCC1 [CBK063860],130.592%
20,c1ccc2c(-c3cc(Nc4ccc5[nH]ccc5c4)ncn3)cccc2c1 [CBK037815],95.2427%

# A portion from further up, for reference:
row,SMILES,% of control remaining
1,CCOC(=O)C1=C(C)NC(=O)NC1c1ccc(-c2cccc([N+](=O)[O-])c2)o1 (stereo not shown) [CBK072102],100%
2,COc1ccccc1-c1nccnc1OCc1cccc(OC)c1OC [CBK106825],98.3812%
